Data: patent publication US20240228559A1, “REDOX SENSITIVE CRALBP MUTANT PROTEINS” (UNIVERSITÄT BERN, priority 2021, published 2024)

Assay: UV-Vis absorption spectral ratio for ligand loading of monomeric complexes
Format: physicochemical
Conditions: monomeric complex with 9-cis retinal; 2.2 = fully saturated
Excerpt: Again, four significant peaks with similar elution volumes can be observed when the apo di-cysteine mutant A212C:T250C of CRALBP are loaded with cis-retinal. […] The order of the peaks is as follows: the first peak from left to right corresponds to the super high molecular weight (SHMW) fractions, the second peak corresponds to the high molecular weight (HMW) fraction, the third peak corresponds to dimeric, and the fourth peak to monomeric fractions, respectively. UV-Vis absorption spectra of monomeric wild type CRALBP and of the A212C: T250C mutant in complex with 9-cis retinal were used to determine the ligand loading of the monomeric complexes. For this, the absorption spectra were normalized to the maximum absorption, of the protein at approximately 280 nm. According to Crabb et al. (Crabb J W. et al., (1998), Protein Sci. 7(3): 746-57) the absorption maximum at 280 nm corresponds to the protein concentration, and the one at 400 nm to bound 9-cis retinal. The fully saturated CRALBP in complex with 9-cis retinal has been reported by the later to have an ideal spectral ratio of ε^280/ε^400=2.2 In our experiments, the ratios for wild-type CRALBP:9-cis retinal and for the A212C:T250C:9-cis retinal mutant are 2.31 and 2.21, respectively, indicating the formation of fully saturated 1:1 complexes (see FIG. 6).

With “wild-type CRALBP:9-cis retinal: monomeric wild type CRALBP in complex with 9-cis retinal [reference compound]” the “spectral ratio ε^280/ε^400” value was 2.31.

For “A212C:T250C:9-cis retinal: monomeric A212C:T250C mutant in complex with 9-cis retinal”, the “spectral ratio ε^280/ε^400” value was 2.21.
